Screening data, single-dose tests

A: 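Whole-cell growth test on Mycobacterium tuberculosis, read after 3 days in glucose-containing 7H9 medium; the read-out is not stated. Concentration: 500 µM. Higher reads as more growth inhibition (inferred: compounds with an IC50 in retests scored well above the rest). About 18,000 compounds were tested under these conditions; 7.9% (about 1,400) showed 50% or more at least once.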
B: 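Whole-cell growth test on Mycobacterium tuberculosis, read after 4 days in a medium based on cholesterol and the lipid DPPC; the read-out is not stated. Compounds at 500 µM. Direction is inferred from retests: higher values go with more growth inhibition. Of about 18,000 compounds tested this way, about 900 (5%) reached 50% or more in at least one test.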

Each number is a percent effect as filed.
How 0% and 100% were set is not recorded. Most values in the screen are low, and negative values occur.
Compounds were drawn at random from those tested, without regard to their results.

Cc1ccsc1C(=O)N(CC(C)O)S(C)(=O)=O (stereo not drawn) gave A: 18.39%; B: 9.753%.
CCOCCC(=O)Nc1ccc2c(c1)C(=O)N(C)C2=O gave A: 1.029%; B: -3.485%.
CN(C)c1ccc(CNCCSc2nnnn2C)cc1 gave A: 19.51%; B: 11.64%.
CC(=O)N1CCc2cc(NC(=O)c3ccsc3)ccc21 gave A: 4.584%; B: 6.865%.
CC(c1ccncc1)N(C)Cc1cnc2cnccn12 (stereo not drawn) gave A: -14.04%; B: -10.83%.
NC(=O)CCN1CCN(c2ncc(Br)cn2)CC1 gave A: 32.24%; B: 17.73%.
O=C(CCN1CCCC1)N1CCc2ccccc21 gave A: 73.22%; B: 20.19%.
CN1C(=O)C[C@@H](C(N)=O)[C@@H]1c1cnn(C)c1 gave A: -7.854%; B: -27.29%.
CN(CC(=O)N1CCC2(CCCCC2)CC1)S(C)(=O)=O gave A: -6.219%; B: -4.154%.
CC(=O)NCCNS(=O)(=O)c1ccc(C)c(Cl)c1 gave A: 46.26%; B: 21.07%.
O=C1N(CC2CC2)CCCC12CCNC2 (stereo not drawn) gave A: -5.572%; B: -14.33%.
CCc1cnc(CNC(=O)NCc2cnn(C)c2)s1 gave A: 32.29%; B: 9.002%.
O=S1(=O)CCNCC12CCCCC2 gave A: -5.573%; B: -4.747%.
C1CC(OC2CCCNC2)C1 (stereo not drawn) gave A: 12.29%; B: 9.232%.
Cn1c(CNC(=O)NCC(F)(F)F)nnc1C1CCC1 gave A: -4.008%; B: -10.1%.
Cc1ccc(CN(C)CC(N)=O)o1 gave A: 2.929%; B: -9.894%.
Cc1cc(=O)n(CCN(C)CC2CCCCO2)c(=O)[nH]1 (stereo not drawn) gave A: -1.94%; B: -3.319%.
COc1ccnc(N2CCCNCC2)n1 gave A: 71.2%; B: 59.99%.
c1cnc2sc(N3CCCNCC3)nc2c1 gave A: 40.67%; B: 10.79%.
O=C(c1ccc(N2CCCCC2=O)cc1)N1CCC1 gave A: 9.621%; B: 1.227%.
O=c1cc(CN2[C@H]3CCNC[C@@H]2CC3)nc2sccn12 gave A: -7.624%; B: -7.497%.
CCN(Cc1nc(C)cs1)[C@H]1COC[C@@H]1O gave A: 5.961%; B: -7.981%.
CC1=Nc2ccccc2CN1 gave A: 2.017%; B: -5.81%.
CCn1ncc(N)c1C(N)=O gave A: 13.31%; B: 13.75%.
COc1ncccc1CN(C)C(=O)CNC(C)=O gave A: 7.481%; B: -5.031%.
Cc1ccc(NC(=O)CN2CCC(O)CC2)c(C)c1 gave A: 30.24%; B: 21.56%.
CC(NC1=NCCN1)c1ccccn1 (stereo not drawn) gave A: 26.5%; B: 19.61%.
CCCC(C)(C)NC(=O)c1ccc(S(C)(=O)=O)cc1 gave A: 29.96%; B: 27.83%.
COCCOC1CCN(c2cccc(C)n2)CC1 gave A: 54.75%; B: 59.02%.
CC(C(=O)Nc1sccc1C(N)=O)N1CCCCC1 (stereo not drawn) gave A: 19.47%; B: -5.458%.
CC(NS(=O)(=O)N(C)C)c1ccccc1 (stereo not drawn) gave A: 17.43%; B: 7.168%.
COc1ccc(CN(C)CC(N)=O)c(Br)c1OC gave A: 43.97%; B: 18.49%.

The last 2 entries again:

- CC(NS(=O)(=O)N(C)C)c1ccccc1 (stereo not drawn) | A: 17.43%; B: 7.168%
- COc1ccc(CN(C)CC(N)=O)c(Br)c1OC | A: 43.97%; B: 18.49%

Source: ChEMBL document CHEMBL3988442, “University of Dundee, Small-Polar-MMV Screening Library” (2021).